In PMC4600981:
The exact form of at least one protein or probe is not confirmed. Weaker means in comparison with the reference protein, sequence or condition of that experiment. Protein sequences can lack the tags named with them.

Target: T1, FvCamlp (Flammulina velutipes ATCC13547) (UniProt R4HKU2)
T1 sequence (looked up): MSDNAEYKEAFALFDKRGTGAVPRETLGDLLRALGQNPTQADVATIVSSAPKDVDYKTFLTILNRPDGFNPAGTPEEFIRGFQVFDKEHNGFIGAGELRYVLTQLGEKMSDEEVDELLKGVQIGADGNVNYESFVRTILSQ
Test: EMSA
Conditions: 5 mM EGTA, 1.0 ug protein; EMSA 5X binding buffer: 20% glycerol, 5 mM MgCl2, 2.5 mM EDTA, 2.5 mM DTT, 250 mM NaCl, 50 mM Tris-HCl pH 7.5, 0.25 mg/ml poly dA-dT; room temperature 30 min; recombinant protein; residues 1-141; protein details: GST (pGEX-4T2) removed by thrombin; label: 32P 5' end label; probe letters rebuilt from the primers and the genome

## GAATTCGACACCGCGGGGTCGCCGAGGTAACATAACGTGAAGCATTGAATACGTTGCTAATTTTAGTGCTTCCCAGAACGTGCCCAGCACTTTGAGGCGCTTCCAAACTAGT (double strand) [100 bp OXDC promoter]
  binding result: binds more weakly
